Our source for the AC50 values is PubChem BioAssay AID445 (National Center for Advancing Translational Sciences (NCATS), 2006).

The test is described as follows: IkB Signaling. To be noted: ABC-DLBCL IkBa-CBG/CBR dual luciferase ratio (green luciferase fused to IkBa over red control in OCI-Ly3 lymphoma cells), 4 h. Put shortly:
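In this assay, an IκBα–CBG68 fusion accumulates when IKK-driven degradation is blocked; native CBR normalizes for cell number. OCI-Ly3 cells were treated 4 h with compound and doxycycline, then green and red light read after Chroma-Glo addition.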

The mark [1] stands for this setting: measured here: control luc red channel unless noted.
The mark [2] stands for this setting: measured here: IkB-luc green channel.
Where [3] appears, read: measured here: control luc red channel.

“And” between values parts separate entries of the source, which are not always exact repeats. Equal values may be shown once. The list shows a part of the results. The main result of the screen is listed elsewhere. These columns were measured beside it and carry no call. Compounds called inactive in the main read-out are mostly missing here. The note in brackets gives the kind of curve behind each potency; many fits are weak.

Usually AC50 stands for the concentration at which the activity in the assay is half-maximal. Regarding `CCc1nc2ccc(C(=O)NCCc3ccccc3OC)cc2nc1CC`, under setting [1], the AC50 is 39.8 µM [falling, single point]. For the compound `CC1CCN(CCc2nc3cc(NS(=O)(=O)c4ccc(F)cc4)ccc3n2C)CC1`, the AC50 under setting [1] was 7.94 µM [falling, partial curve]. Take `CC(C)(C)Cc1nnc(NS(=O)(=O)Cc2ccccc2)s1`: the AC50 under setting [1] is 7.94 µM [falling, partial curve]. `CCCC(O)c1nc2ccccc2n1CCCOc1ccc(Cl)cc1` (centres undefined): under setting [1], the AC50 is 20 µM [falling, partial curve]. `CCc1cccc(NC(=O)C2CCCN(c3ncnc4onc(-c5ccc(F)cc5)c34)C2)c1` (centres undefined): the AC50 under setting [1] was 31.6 µM [falling, single point]. The same measure, in the same setting: with `CCN1CCSc2ccc(C(=O)NCc3ccc(OC(C)C)cc3)cc21` the figure was 20 µM [falling, single point]; with `CCOC(=O)c1cccc(NC(=O)CSc2nnc(CNc3ccc(C)cc3)n2CC)c1`, 15.8 µM [falling, partial curve]. Turning to `Cc1nn(-c2ccccc2)c2sc(C(=O)N(CC(=O)NC(C)(C)C)Cc3ccco3)cc12`, the AC50 runs as follows: under setting [2], 10 µM [falling, partial curve]; under setting [3], 12.6 µM [falling, partial curve]. Consider `Cc1ccc(-n2c(C)cc(C(=O)C(=O)Nc3ccccc3)c2C)c(C)c1`, for which, under setting [1], the AC50 is 31.6 µM [falling, single point]. For `CC(=O)Nc1nc2n(n1)C(c1ccc(F)cc1)C=C(c1ccc(Cl)cc1)N2` (centres undefined), the AC50 under setting [1] is 1.58 µM [rising, partial curve]. The same measure, in the same setting: for `CC(C(=O)NCCSCc1cccc(Cl)c1)N(c1ccccc1)S(C)(=O)=O` (centres undefined) the value was 20 µM [falling, partial curve, poor fit].

For `O=c1cc(-c2ccc(O)cc2)oc2cc(O)cc(O)c12`, the AC50 by setting is: under setting [2], 6.31 µM [falling, partial curve]; under setting [3], 7.94 µM [falling, full curve, poor fit] and 3.98 µM [falling, full curve] and 2.51 µM [falling, full curve]. On to `Cc1cccc(OCC(=O)Nc2cccc(OCc3cc(=O)n4cccc(C)c4n3)c2)c1`, for which the AC50 under setting [1] is 1.58 µM [falling, full curve]. Still for that read-out and setting: for `O=C(/C=C/c1ccccc1)Nc1cc(-c2nc3cc(Cl)ccc3o2)ccc1Cl` the value was 2 µM [falling, full curve]; for `CCOc1cccc2cc(C(=O)N3CCc4ccccc4C3)c(=O)oc12`, 0.794 µM [falling, partial curve].

With `Cc1cc2nc(-c3cccc(NC(=O)c4cccc5ccccc45)c3)oc2cc1C`, the AC50 under setting [1] was 0.316 µM [falling, full curve]. Take `COc1cccc(CNn2c(-c3cccc(C)c3)nc3ccccc3c2=O)c1O`: under setting [1], the AC50 is 39.8 µM [falling, single point]. On the same count and under the same terms, for `CC1CCCN(C(=O)c2cc3ccc4cccnc4c3[nH]2)C1` (centres undefined) the value was 0.501 µM [falling, full curve]; for `COc1ccccc1S(=O)Cc1ccc(C(=O)NCCc2ccc(Cl)cc2)o1` (centres undefined), 10 µM [falling, partial curve]; for `CCCCNC(=O)c1ccc2c(c1)N(Cc1ccc(F)cc1)C(=O)c1ccccc1S2=O` (centres undefined), 20 µM [falling, partial curve].

Consider `Cc1cc(C)c(NC(=O)Cn2c(=O)c3cccn3c3ccccc32)c(C)c1`, for which, under setting [1], the AC50 was 2.51 µM [falling, partial curve].

As for `Cc1ccc(NC(=O)/C=C\C(=O)N(c2ccc(C(C)C)cc2)C(C(=O)NCc2ccco2)c2ccc(Cl)cc2)cc1` (centres undefined), the AC50 under setting [1] was 15.8 µM [falling, partial curve].

`CCOCCCNC(=O)c1ccc(-n2c(-c3ccccc3)cc3c2CCCC3)cc1`: the AC50 under setting [1] was 3.98 µM [falling, partial curve]. On the same count and under the same terms, for `O=C1CC(C(=O)N(CC2CCCO2)C(C(=O)NC2CCCCC2)c2ccncc2)CS1` (centres undefined) the value was 20 µM [falling, partial curve]. Same read-out and setting: for `Cc1cccc(CNC(=O)c2ccc(NC(=O)N3CC(C)Sc4ccccc43)cc2)c1` (centres undefined) the value was 25.1 µM [falling, single point].

In the case of `CCCNC(=O)c1cc(S(=O)(=O)N2CCc3ccccc32)ccc1F`, the AC50 under setting [1] was 12.6 µM [falling, partial curve].

In the case of `O=C(/C=C\c1ccc2c(c1)OCO2)NC1CC(=O)N(c2cccc(F)c2)C1` (centres undefined), the AC50 under setting [1] is 0.631 µM [rising, full curve]. With `O=[N+]([O-])c1ccc(S(=O)(=O)Cc2ccccc2)c([N+](=O)[O-])c1`, under setting [1], the AC50 was 3.16 µM [falling, partial curve]. Still for that read-out and setting: for `CCOC(=O)c1cccc(NC(=O)c2ccc3nc(Cc4ccccc4)oc3c2)c1` the value was 15.8 µM [falling, partial curve]; for `COc1ccc(Cl)cc1NC(=O)c1cnc2sccn2c1=O`, 3.16 µM [rising, full curve].

Consider `COc1ccc(CN(Cc2ccco2)c2cnc(S(C)(=O)=O)nc2C(=O)Nc2ccc(F)cc2)cc1`, for which the AC50 under setting [1] was 20 µM [falling, single point]. As for `Cc1noc(C)c1COc1ccc(C(=O)OCC(=O)N2CC3(C)CC2CC(C)(C)C3)cc1` (centres undefined), the AC50 under setting [1] was 25.1 µM [falling, partial curve]. On the same count and under the same terms, for `COc1ccc(OC)c(-c2csc(-c3c(N)c(C(=O)c4ccccc4)n4ccccc34)n2)c1` the value was 15.8 µM [falling, partial curve]. The same measure, in the same setting: with `O=C(c1ccc(Cl)cc1)C1C2C(=O)N(c3ccccc3)C(=O)C2C2CCCN21` (centres undefined) the figure was 12.6 µM [falling, partial curve]; with `COc1ccc(S(=O)(=O)N(CC(=O)Nc2cccc(C(F)(F)F)c2)c2ccc(C)cc2)cc1`, 7.94 µM [falling, full curve]. With `COc1ccc(C)cc1-n1nnnc1SCc1cc(=O)n2cc(C)ccc2n1`, the AC50 under setting [1] was 15.8 µM [falling, partial curve].

For the compound `CCOC(=O)C1CCN(C(c2cc(OC)c(OC)c(OC)c2)c2sc3nc(C)nn3c2O)CC1` (centres undefined), the AC50 under setting [1] was 31.6 µM [falling, single point]. The same measure, in the same setting: with `CCC(CC)COC(=O)C(C#N)c1nc2ccccc2nc1N1CCN(CC)CC1` (centres undefined) the figure was 39.8 µM [falling, single point]; with `Cc1c(Cl)cccc1-n1nc(C)c2c(C(=O)NCc3ccccc3)cc(C3CC3)nc21`, 7.94 µM [falling, partial curve]. Same read-out and setting: for `Cc1nc2c(-c3ccccc3)c(C)nn2c(C)c1CCC(=O)NCc1ccc(F)cc1` the value was 20 µM [falling, single point]; for `Cn1c(=O)oc2cc(S(=O)(=O)Nc3ccccc3O)ccc21`, 12.6 µM [falling, partial curve]. On the same count and under the same terms, with `Cc1ccc(-c2cc(NC(=O)COc3ccc(Cl)cc3C)on2)cc1` the figure was 39.8 µM [falling, partial curve]; with `O=C(NCc1ccc(Cl)cc1)C1CCN(S(=O)(=O)Cc2ccccc2)CC1`, 2.51 µM [falling, full curve]. `COc1ccc(-c2cc(C(F)(F)F)nc(SCC(=O)N3CCC(C)CC3)n2)cc1`: the AC50 under setting [1] is 0.0631 µM [falling, full curve, poor fit]. On the same count and under the same terms, for `COc1cccc(/C=C/c2onc(C)c2S(=O)(=O)N2CCC(C(=O)N3CCC(C)CC3)CC2)c1` the value was 25.1 µM [falling, partial curve]; for `Cc1cc2ccccc2n1-c1ccc(C(=O)N2CCC(C(=O)NCc3ccccc3Cl)CC2)s1`, 15.8 µM [falling, partial curve, poor fit]; for `CC(CNC(=O)Cc1ccc(NC(=O)N2CCSc3ncccc32)cc1)c1ccccc1` (centres undefined), 12.6 µM [falling, partial curve]. On to `COc1ccc(-c2cn3c(n2)sc2cc(C(=O)Nc4cccc(OC)c4)ccc23)cc1`, for which the AC50 under setting [1] was 12.6 µM [falling, partial curve]. Take `Cc1ccccc1NCc1cccn1-c1nnc(N2CCC(C)CC2)s1`: the AC50 under setting [1] was 39.8 µM [falling, single point]. For the compound `CCOC(=O)C1=C(CN2CCN(c3ccccc3F)CC2)NC(=O)NC1c1ccc(Cl)cc1` (centres undefined), the AC50 under setting [1] is 15.8 µM [falling, partial curve]. On the same count and under the same terms, with `COc1ccc(N2CCN(C(CNC(=O)C(=O)NCCc3ccccc3)c3cccnc3)CC2)cc1` (centres undefined) the figure was 31.6 µM [falling, single point]; with `O=S(=O)(c1cccc(-c2csc(-c3cccnc3)n2)c1)N1CCCCC1`, 25.1 µM [falling, single point]. The same measure, in the same setting: for `Cc1ccc(CN2CCC(CNC(=O)Nc3cccc(Cl)c3C)C2)cc1` (centres undefined) the value was 39.8 µM [falling, single point]; for `COc1ccc(C)cc1NC(=O)CSc1nc2ccccc2nc1N1CCOCC1`, 39.8 µM [falling, partial curve]; for `O=C(COc1ccc(Cl)cc1)Nc1nnc2n1CCS2`, 25.1 µM [rising, single point].

On to `CCOCCCN(C(=O)Nc1ccc(Cl)cc1)C1CCN(C(C)=O)CC1`, for which, under setting [1], the AC50 was 0.316 µM [rising, partial curve].

Consider `Cc1c(CNC2CCCCCC2)c(C(=O)O)c(C)n1Cc1ccc(F)cc1Cl`, for which the AC50 under setting [1] was 15.8 µM [falling, partial curve]. Consider `CC(C)NC(=O)c1cnc(N2CCN(c3ccccn3)CC2)c2ccccc12`, for which, under setting [1], the AC50 is 15.8 µM [falling, partial curve]. `COc1cc(OC)cc(-c2nc(-c3cccc(C)c3)no2)c1`: the AC50 under setting [1] was 0.0631 µM [rising, partial curve]. As to `CCc1ccc(-n2c(=O)c3c4c(sc3n(Cc3ccc(C)cc3)c2=O)CCC4)cc1`, the AC50 under setting [1] is 12.6 µM [falling, partial curve]. For `COc1ccc(CCNc2nccn(-c3ccc(C)c(C)c3)c2=O)cc1OC`, the AC50 under setting [1] was 31.6 µM [falling, partial curve]. In the case of `Cc1cc(C)cc(N2CC(c3nc(-c4cccc(Cl)c4)no3)CC2=O)c1` (centres undefined), the AC50 under setting [1] was 25.1 µM [falling, single point].
